# Hit rate of the full screen: of about 330,000 compounds, about 7,700 (2.3%) were called active. The shares of active, inactive and inconclusive entries below differ from those in the screen. Calls come from the whole dose curve; as a rule, active = well fitted inhibition curve with a large enough effect; inconclusive = small, poorly fitted or top-dose-only effect, or effect the other way; inactive = flat fitted curve, though single readings scatter. Where the call is inconclusive, the potency comes from a doubtful curve fit.
# Assay: qHTS screen for small molecules that inhibit ELG1-dependent DNA repair in human embryonic kidney (HEK293T) cells expressing luciferase-tagged ELG1; note: nearly all actives have a fitted effect of over 55% in size
# Details: HEK293T ELG1-luciferase reporter, luminescence, 16 h, DNA damage induced by 5-fluorouridine; series mostly up to 46.1 µM
# Method in brief: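 HEK293T cells expressing luciferase-tagged ELG1 (2,000/well) received 5-Fluorouridine plus compound or DMSO for 16 hr at 37 °C. Luciferase was read by ONE-Glo luminescence after 30 min at room temperature.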
# Potency is the fitted concentration of half-maximal effect.
row,SMILES,Potency
1,O=C(CN1C(=O)CCC1=O)Nc1nc(-c2ccc3ccccc3c2)cs1,"inconclusive: 14.6 µM [activator, partial curve]"
2,COc1ccc(NC(=O)c2ccc(-c3ccccc3)cc2)cc1S(=O)(=O)N1CCOCC1,"inconclusive: 3.66 µM [inhibitor, single point]"
3,CC(C)(C)OC(=O)COc1cc(OCC(=O)OC(C)(C)C)c2c(=O)cc(-c3ccccc3)oc2c1,"inconclusive: 35.5 µM [inhibitor, single point]"
4,COc1ccc2c(c1OC)CCC2=O,inactive
5,COc1ccccc1NS(=O)(=O)c1cccc(C(=O)N2CCN(C/C=C/c3ccccc3)CC2)c1,"inconclusive: 18.3 µM [inhibitor, partial curve, poor fit]"
6,COc1cc(S(=O)(=O)N2CCN=C2c2ccccc2)ccc1Cl,inactive
7,O=C(c1ccc(Cl)cc1)C(CN1CCCC1)c1ccccc1 (configuration not stated),"inconclusive: 29.1 µM [inhibitor, single point]"
8,CCC(C)NC(=O)CSc1nnc(-c2cc(-c3ccc(C)cc3)nc3ccccc23)n1N (configuration not stated),"inconclusive: 23.1 µM [inhibitor, partial curve]"
9,CCN(C(=O)COC(=O)C1CC1)c1c(N)n(Cc2ccccc2)c(=O)[nH]c1=O,inactive
10,CNc1nc(Nc2ccc(Br)cc2)nc(N)c1[N+](=O)[O-],"inconclusive: 2.06 µM [activator, full curve]"
11,Cc1ccc(C2=NOC(=O)/C2=C\C=C\c2ccccc2)cc1,"inconclusive: 29.1 µM [inhibitor, single point]"
12,Cc1cccc(C)c1NC(=O)CSc1cc(C(=O)c2nccn2C)c2ccccc2n1,active: 14.6 µM
13,CCOc1ccc2nc(CN3CCN(Cc4ccccc4OCC)C(CCO)C3)ccc2c1 (configuration not stated),inactive
14,CCOC(=O)CNC(=O)c1ccc2[nH]c3c(c2c1)CCCC3,"inconclusive: 16.4 µM [activator, partial curve, poor fit]"
15,Cc1cc2oc(=O)c(CC(=O)NCCCN(C)C)c(C)c2c2occ(C(C)(C)C)c12,"inconclusive: 18.3 µM [inhibitor, single point]"
16,O=C(CCC(=O)OCc1ccc(Br)cc1)Nc1ccccc1,inactive
17,Cc1ccsc1/C=N/N1CCOCC1,"inconclusive: 25.9 µM [activator, partial curve, poor fit]"
18,c1ccc(CSc2nnc(Cc3ccccc3)o2)cc1,"inconclusive: 23.1 µM [activator, partial curve]"
19,O=C(COC(=O)c1c(Cl)cccc1Cl)NCc1cccs1,"inconclusive: 29.1 µM [inhibitor, single point]"
20,O=C(Nc1cccc2ccccc12)c1ccc(F)cc1,"inconclusive: 14.6 µM [activator, partial curve]"
21,CCN1C(=O)C(O)(CC(=O)c2ccccn2)c2ccccc21 (configuration not stated),inactive
22,COc1ccc(-c2cc(C(=O)OCC(=O)N3CCCCC3)c3ccccc3n2)cc1OC,active: 9.2 µM
23,CCOC(=O)C1(CCOC)CCN(C(=O)c2ccccc2-c2cccc(C)c2)CC1,inactive

row,SMILES,Potency
1,COc1ccc(S(=O)(=O)N2CCC(C(=O)N3CCCCC3)CC2)cc1,"inconclusive: 23.1 µM [inhibitor, partial curve, poor fit]"
2,CCN(CC)S(=O)(=O)c1ccc(NC(=O)COC(=O)c2ccc(-n3nc(C)cc3C)cc2)cc1,"inconclusive: 1.3 µM [inhibitor, full curve]"
3,Cc1ccc(S(=O)(=O)N(CC(=O)NCCSc2ccccn2)c2ccccc2F)cc1,"inconclusive: 18.3 µM [inhibitor, single point]"
4,CCc1ccc(N2CC(C(=O)N/N=C/c3ccccc3OC)CC2=O)cc1 (configuration not stated),inactive
5,CCN(CC)C(=O)C1CCCN(C(=O)c2oc3ccc(C)cc3c2C)C1 (configuration not stated),inactive
6,C/C(=N\Nc1ccc(F)cc1F)c1cccs1,"inconclusive: 16.4 µM [activator, single point]"
7,CSc1nc(N)nc2c1ncn2CC(=O)NCc1ccc2[nH]ccc2c1,active: 23.1 µM
8,CN1C(=O)N(C)c2ccc(Br)c3cccc1c23,"inconclusive: 0.0046 µM [activator, full curve, poor fit]"
9,CC(=O)Nc1ccc(Nc2nc(-c3sc(NC(C)=O)nc3C)cs2)cc1,active: 23.1 µM
10,COc1cc(/C=C/c2nc3ccccc3c(=O)[nH]2)ccc1OC(F)F,"inconclusive: 6.51 µM [activator, full curve, poor fit]"
11,COc1cccc(NC(=O)Cn2c3ccccc3c3nc4n(c(=O)c32)CCCS4)c1,"inconclusive: 13 µM [inhibitor, partial curve]"
12,COc1cc(C(=O)OCc2csc(CC(=O)Nc3ccccc3C)n2)ccc1OCC(C)C,"inconclusive: 23.1 µM [inhibitor, partial curve, poor fit]"
13,O=C(CC1N=C2c3ccccc3N=C(SCc3ccc(F)cc3)N2C1=O)NCc1ccco1 (configuration not stated),inactive
14,O=[N+]([O-])c1cccc(OCC(O)CN2CCN(S(=O)(=O)c3cc(Cl)ccc3Cl)CC2)c1 (configuration not stated),"inconclusive: 20.6 µM [inhibitor, single point]"
15,Cc1nn(C)cc1/C=N/NC(=O)C1(O)c2ccccc2-c2ccccc21,inactive
16,CCC(OC(=O)C1=Cc2ccccc2OC1)C(=O)NCc1ccco1 (configuration not stated),inactive
17,COc1ccc(Cl)cc1NC(=O)c1nnn(CC(=O)Nc2cc(C)cc(C)c2)c1N,"inconclusive: 10.3 µM [activator, partial curve, poor fit]"
18,O=c1c(Cl)nc2cc(Cl)ccc2n1CCNc1ncc(C(F)(F)F)cc1Cl,"inconclusive: 25.9 µM [inhibitor, single point]"
19,Cc1ccc(C)c(CN2C(=O)COc3ccc(C(=O)c4ccccc4C(=O)O)cc32)c1,"inconclusive: 5.8 µM [inhibitor, single point]"
20,Cc1ccc(S(=O)(=O)C(C#N)c2nc3ccccc3nc2N2CCN(C)CC2)cc1C (configuration not stated),"inconclusive: 13 µM [inhibitor, partial curve, poor fit]"
21,O=C1CCC(C(=O)N2CCCCO2)CN1Cc1ccc(Cl)cc1 (configuration not stated),inactive
22,Fc1ccc(SCCc2ccncc2)cc1,inactive
23,CC1(C)Cc2ccccc2-c2nc(NCCCO)n(-c3ccccc3)c(=O)c21,"inconclusive: 11.2 µM [inhibitor, partial curve]"

row,SMILES,Potency
1,Cc1ccc(-c2nnc(Cc3ccc(Cl)cc3)o2)cc1,"inconclusive: 18.4 µM [activator, partial curve]"
2,COc1ccc(N(/N=C2\Sc3ccccc3C2=O)C(C)=O)cc1,"inconclusive: 3.66 µM [activator, partial curve]"
3,COC(=O)c1cccc(-n2sc3ccccc3c2=O)c1,"inconclusive: 18.3 µM [activator, partial curve, poor fit]"
4,Cc1[nH]c2ccc(C(=O)OC(C)C(=O)NCc3ccccc3)cc2c1C (configuration not stated),"inconclusive: 23.1 µM [inhibitor, partial curve, poor fit]"
5,Cc1ccc(NCC(=O)N=Nc2c(O)[nH]c3ccc([N+](=O)[O-])cc23)cc1,"inconclusive: 13 µM [activator, partial curve, poor fit]"
6,CCOc1cc(N2CCOCC2)c(OCC)cc1NC(=O)[C@H](C)NC(=O)c1ccco1,"inconclusive: 4.11 µM [inhibitor, partial curve, poor fit]"
7,COc1ccccc1NC(=O)C(=O)c1cn(CC(=O)N2CCCC2)c2ccccc12,"inconclusive: 2.59 µM [activator, single point]"
8,O=C(NCc1ccccn1)C1CC(c2ccc(F)cc2)=NO1 (configuration not stated),inactive
9,O=C(CN1CCN(Cc2ccc3c(c2)OCO3)CC1)Nc1ccc2c(c1)OCCO2,"inconclusive: 4.11 µM [inhibitor, single point]"
10,CCc1ccc(NC(=O)Nc2ccon2)cc1,"inconclusive: 10.3 µM [activator, partial curve]"
11,COc1cc(CCC(=O)OCC(=O)Nc2ccc(F)c(F)c2F)cc(OC)c1OC,"inconclusive: 1.16 µM [inhibitor, single point]"
12,O=c1c(-c2ccc([N+](=O)[O-])cc2)coc2c(O)c(O)ccc12,"inconclusive: 3.66 µM [activator, single point]"
13,O=C(NCc1ccccc1)C1CCCN(C(=O)NCc2ccccc2)C1 (configuration not stated),"inconclusive: 18.3 µM [activator, partial curve, poor fit]"
14,O=C(CSCc1ccco1)N1CCc2ccccc21,"inconclusive: 13 µM [activator, partial curve]"
15,O=C(/C=C/c1cccs1)Nc1ccc(Br)cn1,"inconclusive: 7.31 µM [activator, partial curve]"
16,CCOC(=O)c1cc2c(=O)n3ccccc3nc2n(C(C)C)c1=NC(=O)c1ccncc1,"inconclusive: 25.9 µM [inhibitor, partial curve, poor fit]"
17,COc1ccccc1CNc1ncnc2cc(OC)c(OC)cc12,"inconclusive: 23.1 µM [inhibitor, single point]"
18,COc1ccc(C2CC(=O)c3cnn(-c4nc(C)cc(C)n4)c3C2)cc1 (configuration not stated),"inconclusive: 13 µM [inhibitor, partial curve]"
19,O=C(N/N=C/c1ccccn1)c1cc(C2CC2)[nH]n1,"inconclusive: 16.4 µM [activator, partial curve]"
20,Cc1onc(-c2ccccc2)c1CNC(=O)Nc1ccccc1,"inconclusive: 20.6 µM [inhibitor, single point]"
21,O=C(Nc1ccc(Cl)cc1)c1cc(Br)ccc1OCC(=O)N1CCOCC1,"inconclusive: 25.9 µM [inhibitor, single point]"

# Reprinted at random: 2 records from the list.
row,SMILES,Potency
13,O=C(NCc1ccccc1)C1CCCN(C(=O)NCc2ccccc2)C1 (configuration not stated),"inconclusive: 18.3 µM [activator, partial curve, poor fit]"
21,O=C(Nc1ccc(Cl)cc1)c1cc(Br)ccc1OCC(=O)N1CCOCC1,"inconclusive: 25.9 µM [inhibitor, single point]"
